Experimental findings from the supplement of paper PMC10849652 are described below.

Sequences of proteins named here, by UniProt entry; tags and fusion partners are left off. A change or cut given only in a name is not applied to a line headed by its entry.
UniProt O14578, whole entry, looked up: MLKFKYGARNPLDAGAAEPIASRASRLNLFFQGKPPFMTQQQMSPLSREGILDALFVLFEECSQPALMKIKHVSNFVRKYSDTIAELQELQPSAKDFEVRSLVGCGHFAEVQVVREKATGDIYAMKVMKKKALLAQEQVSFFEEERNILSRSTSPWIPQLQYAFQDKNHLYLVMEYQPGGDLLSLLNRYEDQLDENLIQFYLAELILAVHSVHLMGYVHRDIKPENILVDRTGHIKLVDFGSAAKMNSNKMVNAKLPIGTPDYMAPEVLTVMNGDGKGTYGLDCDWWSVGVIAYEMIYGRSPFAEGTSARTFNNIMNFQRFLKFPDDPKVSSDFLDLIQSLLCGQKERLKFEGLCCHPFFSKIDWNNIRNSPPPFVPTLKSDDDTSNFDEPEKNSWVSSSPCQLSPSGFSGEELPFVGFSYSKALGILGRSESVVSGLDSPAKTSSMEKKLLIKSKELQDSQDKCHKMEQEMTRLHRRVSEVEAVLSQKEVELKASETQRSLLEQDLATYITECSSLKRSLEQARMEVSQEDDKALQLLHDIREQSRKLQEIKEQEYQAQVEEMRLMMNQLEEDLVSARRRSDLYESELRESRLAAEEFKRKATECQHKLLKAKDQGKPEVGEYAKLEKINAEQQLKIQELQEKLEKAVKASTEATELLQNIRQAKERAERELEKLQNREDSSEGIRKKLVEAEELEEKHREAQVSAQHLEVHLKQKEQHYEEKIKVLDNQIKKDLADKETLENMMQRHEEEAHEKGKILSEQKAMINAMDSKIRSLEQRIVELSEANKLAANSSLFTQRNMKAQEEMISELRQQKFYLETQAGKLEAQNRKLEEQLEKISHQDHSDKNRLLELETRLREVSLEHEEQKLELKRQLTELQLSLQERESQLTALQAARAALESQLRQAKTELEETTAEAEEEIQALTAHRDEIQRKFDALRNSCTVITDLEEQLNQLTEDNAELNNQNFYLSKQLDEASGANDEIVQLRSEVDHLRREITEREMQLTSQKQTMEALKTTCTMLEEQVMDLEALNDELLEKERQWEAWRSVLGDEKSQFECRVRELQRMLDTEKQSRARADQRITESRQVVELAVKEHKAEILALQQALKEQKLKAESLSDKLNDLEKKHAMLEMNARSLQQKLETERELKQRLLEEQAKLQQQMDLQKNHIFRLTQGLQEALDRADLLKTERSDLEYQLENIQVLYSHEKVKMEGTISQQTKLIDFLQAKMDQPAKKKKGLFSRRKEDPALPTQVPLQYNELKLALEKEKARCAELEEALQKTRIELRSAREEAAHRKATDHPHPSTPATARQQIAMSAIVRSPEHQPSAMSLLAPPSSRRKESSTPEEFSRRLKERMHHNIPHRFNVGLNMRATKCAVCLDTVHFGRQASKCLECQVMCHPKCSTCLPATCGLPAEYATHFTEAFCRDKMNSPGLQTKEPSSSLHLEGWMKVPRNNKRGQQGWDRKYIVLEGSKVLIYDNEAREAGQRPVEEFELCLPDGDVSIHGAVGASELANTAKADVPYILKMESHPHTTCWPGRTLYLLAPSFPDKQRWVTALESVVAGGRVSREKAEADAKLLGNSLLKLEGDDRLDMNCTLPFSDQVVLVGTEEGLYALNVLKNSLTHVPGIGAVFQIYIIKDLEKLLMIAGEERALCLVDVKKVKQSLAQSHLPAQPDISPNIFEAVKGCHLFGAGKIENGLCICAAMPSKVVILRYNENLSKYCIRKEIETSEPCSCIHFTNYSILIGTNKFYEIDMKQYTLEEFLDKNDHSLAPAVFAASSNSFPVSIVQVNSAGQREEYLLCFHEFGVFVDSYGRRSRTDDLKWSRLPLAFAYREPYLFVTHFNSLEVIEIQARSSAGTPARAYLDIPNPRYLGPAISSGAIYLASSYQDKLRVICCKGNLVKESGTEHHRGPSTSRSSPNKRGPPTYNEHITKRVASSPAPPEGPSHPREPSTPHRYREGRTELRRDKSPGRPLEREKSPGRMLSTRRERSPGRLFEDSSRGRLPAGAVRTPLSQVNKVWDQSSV
UniProt Q5T1J5: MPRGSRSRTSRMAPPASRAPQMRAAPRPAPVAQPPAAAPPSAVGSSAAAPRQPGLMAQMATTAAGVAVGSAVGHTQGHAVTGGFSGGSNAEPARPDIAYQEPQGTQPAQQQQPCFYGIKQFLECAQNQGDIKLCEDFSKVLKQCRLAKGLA
UniProt Q8IY22: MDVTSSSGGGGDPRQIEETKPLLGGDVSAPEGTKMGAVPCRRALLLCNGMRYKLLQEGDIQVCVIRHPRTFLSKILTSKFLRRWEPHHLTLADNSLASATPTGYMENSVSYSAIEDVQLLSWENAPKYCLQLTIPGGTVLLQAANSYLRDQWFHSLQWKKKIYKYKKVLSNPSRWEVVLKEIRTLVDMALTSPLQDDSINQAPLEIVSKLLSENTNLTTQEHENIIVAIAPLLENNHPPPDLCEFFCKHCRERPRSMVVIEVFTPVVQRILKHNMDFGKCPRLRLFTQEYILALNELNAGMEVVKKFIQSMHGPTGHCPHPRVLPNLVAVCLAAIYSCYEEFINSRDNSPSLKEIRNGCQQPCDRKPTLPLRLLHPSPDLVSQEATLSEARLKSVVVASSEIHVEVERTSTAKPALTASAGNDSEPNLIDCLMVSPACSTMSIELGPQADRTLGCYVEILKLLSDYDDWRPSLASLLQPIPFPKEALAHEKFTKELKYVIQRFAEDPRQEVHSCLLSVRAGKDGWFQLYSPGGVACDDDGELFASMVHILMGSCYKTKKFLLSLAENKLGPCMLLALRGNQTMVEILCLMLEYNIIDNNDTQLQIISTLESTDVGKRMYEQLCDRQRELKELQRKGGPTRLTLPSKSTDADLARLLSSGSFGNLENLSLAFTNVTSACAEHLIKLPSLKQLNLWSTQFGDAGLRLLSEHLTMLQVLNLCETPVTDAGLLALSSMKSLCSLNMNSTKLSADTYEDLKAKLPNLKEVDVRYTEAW
UniProt Q9NZZ3: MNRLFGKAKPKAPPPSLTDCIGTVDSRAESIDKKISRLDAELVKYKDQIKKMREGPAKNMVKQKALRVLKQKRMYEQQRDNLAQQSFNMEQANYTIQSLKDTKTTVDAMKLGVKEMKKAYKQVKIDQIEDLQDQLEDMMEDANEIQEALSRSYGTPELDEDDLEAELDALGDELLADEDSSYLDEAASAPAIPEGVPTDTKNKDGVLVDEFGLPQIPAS
UniProt Q7Z7K0: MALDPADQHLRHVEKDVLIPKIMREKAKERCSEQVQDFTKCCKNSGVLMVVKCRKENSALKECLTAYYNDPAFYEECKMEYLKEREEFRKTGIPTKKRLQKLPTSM
UniProt Q14008: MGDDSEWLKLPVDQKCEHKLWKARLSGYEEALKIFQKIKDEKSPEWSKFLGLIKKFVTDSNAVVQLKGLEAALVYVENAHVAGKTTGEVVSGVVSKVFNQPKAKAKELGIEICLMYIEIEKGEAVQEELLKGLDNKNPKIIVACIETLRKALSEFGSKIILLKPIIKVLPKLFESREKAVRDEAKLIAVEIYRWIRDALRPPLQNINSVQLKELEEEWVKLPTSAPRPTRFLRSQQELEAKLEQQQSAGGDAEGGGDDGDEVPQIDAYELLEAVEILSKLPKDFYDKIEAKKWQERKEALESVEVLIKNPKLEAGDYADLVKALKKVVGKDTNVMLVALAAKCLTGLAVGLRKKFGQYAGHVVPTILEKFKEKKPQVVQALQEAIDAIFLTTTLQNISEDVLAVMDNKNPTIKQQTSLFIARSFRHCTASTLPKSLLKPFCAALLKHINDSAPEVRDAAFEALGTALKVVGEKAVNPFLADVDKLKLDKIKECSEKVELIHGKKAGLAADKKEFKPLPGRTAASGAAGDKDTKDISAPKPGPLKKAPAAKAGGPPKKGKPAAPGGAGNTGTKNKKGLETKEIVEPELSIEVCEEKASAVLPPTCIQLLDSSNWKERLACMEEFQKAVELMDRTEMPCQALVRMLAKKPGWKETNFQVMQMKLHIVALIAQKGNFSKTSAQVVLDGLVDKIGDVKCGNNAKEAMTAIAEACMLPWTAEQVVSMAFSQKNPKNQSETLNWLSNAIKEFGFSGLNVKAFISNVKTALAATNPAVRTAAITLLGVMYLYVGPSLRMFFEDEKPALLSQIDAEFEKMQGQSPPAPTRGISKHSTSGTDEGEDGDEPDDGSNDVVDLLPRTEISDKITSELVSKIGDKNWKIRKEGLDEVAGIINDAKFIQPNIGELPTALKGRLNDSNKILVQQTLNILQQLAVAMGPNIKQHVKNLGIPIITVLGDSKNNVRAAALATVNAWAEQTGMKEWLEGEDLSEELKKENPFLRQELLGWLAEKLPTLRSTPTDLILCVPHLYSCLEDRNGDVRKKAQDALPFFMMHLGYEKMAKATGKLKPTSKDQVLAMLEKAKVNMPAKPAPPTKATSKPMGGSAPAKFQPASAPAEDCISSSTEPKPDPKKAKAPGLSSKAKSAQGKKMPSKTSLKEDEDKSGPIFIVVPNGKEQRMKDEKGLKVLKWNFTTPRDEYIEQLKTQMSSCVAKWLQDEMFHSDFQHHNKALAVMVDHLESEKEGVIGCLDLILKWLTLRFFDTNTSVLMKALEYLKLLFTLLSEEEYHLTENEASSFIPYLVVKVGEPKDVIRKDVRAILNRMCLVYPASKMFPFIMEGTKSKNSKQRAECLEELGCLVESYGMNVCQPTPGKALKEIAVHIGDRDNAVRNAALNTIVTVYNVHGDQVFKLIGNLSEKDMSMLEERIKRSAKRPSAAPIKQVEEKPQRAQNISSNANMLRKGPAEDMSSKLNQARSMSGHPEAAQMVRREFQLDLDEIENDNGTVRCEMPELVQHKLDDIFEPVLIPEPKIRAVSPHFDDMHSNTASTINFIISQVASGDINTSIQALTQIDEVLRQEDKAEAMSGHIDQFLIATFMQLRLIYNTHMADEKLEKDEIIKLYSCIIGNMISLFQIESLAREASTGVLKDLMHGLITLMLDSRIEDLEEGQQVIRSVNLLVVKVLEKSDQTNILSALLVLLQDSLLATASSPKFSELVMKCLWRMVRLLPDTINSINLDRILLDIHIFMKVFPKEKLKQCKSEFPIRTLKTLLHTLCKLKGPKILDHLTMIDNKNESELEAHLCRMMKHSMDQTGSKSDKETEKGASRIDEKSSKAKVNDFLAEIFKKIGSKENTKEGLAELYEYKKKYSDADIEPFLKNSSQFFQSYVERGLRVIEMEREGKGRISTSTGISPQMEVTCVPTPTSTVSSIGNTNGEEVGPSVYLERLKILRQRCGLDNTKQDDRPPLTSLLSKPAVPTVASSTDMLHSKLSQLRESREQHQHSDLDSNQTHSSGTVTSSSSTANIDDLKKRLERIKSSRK
UniProt Q86WJ1: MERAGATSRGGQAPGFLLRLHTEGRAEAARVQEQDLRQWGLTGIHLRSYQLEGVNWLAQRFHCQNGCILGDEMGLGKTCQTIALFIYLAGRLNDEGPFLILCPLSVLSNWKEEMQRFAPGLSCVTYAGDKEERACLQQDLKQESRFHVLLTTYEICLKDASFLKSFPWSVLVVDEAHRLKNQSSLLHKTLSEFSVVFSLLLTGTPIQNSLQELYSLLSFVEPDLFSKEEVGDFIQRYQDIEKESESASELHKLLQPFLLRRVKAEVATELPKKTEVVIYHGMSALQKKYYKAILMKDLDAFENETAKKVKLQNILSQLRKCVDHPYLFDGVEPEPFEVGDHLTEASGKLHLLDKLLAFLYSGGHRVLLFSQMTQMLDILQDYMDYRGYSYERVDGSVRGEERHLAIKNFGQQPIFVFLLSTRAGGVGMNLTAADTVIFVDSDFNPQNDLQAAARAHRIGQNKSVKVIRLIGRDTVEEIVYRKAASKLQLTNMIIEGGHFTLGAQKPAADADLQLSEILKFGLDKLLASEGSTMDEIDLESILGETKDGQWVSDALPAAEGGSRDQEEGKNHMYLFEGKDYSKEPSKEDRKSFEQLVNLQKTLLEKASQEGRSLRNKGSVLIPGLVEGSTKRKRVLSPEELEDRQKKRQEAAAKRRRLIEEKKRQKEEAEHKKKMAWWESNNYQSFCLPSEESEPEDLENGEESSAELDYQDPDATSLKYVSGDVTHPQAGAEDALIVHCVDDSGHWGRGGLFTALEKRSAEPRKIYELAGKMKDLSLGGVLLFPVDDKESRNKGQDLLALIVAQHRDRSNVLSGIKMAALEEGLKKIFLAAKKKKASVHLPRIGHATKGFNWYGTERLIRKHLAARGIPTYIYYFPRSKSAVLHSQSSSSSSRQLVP
UniProt Q9Y259: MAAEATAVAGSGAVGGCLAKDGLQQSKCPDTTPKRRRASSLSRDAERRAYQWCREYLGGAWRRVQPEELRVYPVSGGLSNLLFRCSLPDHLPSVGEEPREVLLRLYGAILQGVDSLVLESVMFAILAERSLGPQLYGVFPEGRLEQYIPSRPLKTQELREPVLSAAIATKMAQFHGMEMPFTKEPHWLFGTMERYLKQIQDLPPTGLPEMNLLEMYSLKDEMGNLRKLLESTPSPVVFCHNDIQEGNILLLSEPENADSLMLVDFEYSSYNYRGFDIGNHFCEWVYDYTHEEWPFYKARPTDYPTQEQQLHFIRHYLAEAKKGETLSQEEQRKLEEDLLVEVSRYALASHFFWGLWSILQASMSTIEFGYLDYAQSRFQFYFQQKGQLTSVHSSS

This is one part of the list.

Compound in the test: CC(C)C1=C2N=C(C=C(N2N=C1)NCC3=CC=CC=C3)NCCCCCCN
The test is described as follows: log2 fold change, soluble protein after heating vs DMSO (PISA); higher = thermal stabilisation; K562 lysate, 10 uM; active = over 0.2 and 3.5 SD of the protein, either way, in both replicates (recomputed). The gist of the method:
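K562 pellets were dounce-homogenised in PBS pH 7.4 containing 1 mM MgCl2, and the crude extract, at 1 mg/mL protein, was exposed to 10 μM compound for 30 min. Aliquots were heated for 3 min across 48°C-58°C, pooled, brought to 0.5% NP-40 at 4°C and spun at 21,000xg for 90 min, with the supernatant taken as soluble protein. TMTpro 16plex LC-MS/MS with equalised channel sums quantified that protein. Values are log-two fold changes in thermal stability relative to solvent controls, taken from duplicates.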
For the target CIT isoform 4 (UniProt O14578), the log2 fold change is inactive: 0.003. For CHEK1 (UniProt O14757) the value was inactive: -0.003; for CHCHD2P9 (UniProt Q5T1J5), inactive: 0.077; for CIRBP (UniProt Q14011), inactive: -0.02. For CMIP (UniProt Q8IY22) the value was inactive: -0.011; for CHKA (UniProt P35790), inactive: -0.058; for CHCHD4 isoform 2 (UniProt Q8N4Q1), inactive: -0.015.

On to CHM (UniProt P24386), for which the log2 fold change is inactive: -0.038. As to CKM (UniProt P06732), the log2 fold change is inactive: 0.002. Then CHID1 (UniProt Q9BWS9), with inactive: 0.002; and CMSS1 (UniProt Q9BQ75), with inactive: 0.047; and CHMP4A isoform 2 (UniProt Q9BY43), with inactive: 0.036. With CNBP isoform 4 (UniProt P62633), the log2 fold change is inactive: -0.205. With CHMP5 (UniProt Q9NZZ3), the log2 fold change was inactive: -0.036. Regarding CMC1 (UniProt Q7Z7K0), the log2 fold change was inactive: 0.008.

Take CHCHD3 (UniProt Q9NX63): the log2 fold change is inactive: -0.009.

In the case of CMTM3 (UniProt Q96MX0), the log2 fold change is inactive: -0.022. Consider CIAO2B (UniProt Q9Y3D0), for which the log2 fold change was inactive: 0.033. Then CKMT2 (UniProt P17540), with inactive: 0.033.

With CHRAC1 (UniProt Q9NRG0), the log2 fold change was inactive: 0.14. For CISD2 (UniProt Q8N5K1) the value was inactive: -0.001; for CIZ1 (UniProt Q9ULV3), inactive: -0.112. For CHD1 (UniProt O14646) the value was inactive: 0.006; for CHURC1 isoform 2 (UniProt Q8WUH1), inactive: 0.07; for CIC (UniProt I3L2J0), inactive: 0.013. For CKAP5 (UniProt Q14008) the value was inactive: -0.007; for CHD5 (UniProt Q8TDI0), inactive: -0.011; for CHMP7 (UniProt Q8WUX9), inactive: 0.039.

With CHD7 (UniProt Q9P2D1), the log2 fold change was inactive: 0.009. With CHD1L (UniProt Q86WJ1), the log2 fold change was inactive: -0.001. Then CHD3 isoform 3 (UniProt Q12873), with inactive: -0.001; and CHKB (UniProt Q9Y259), with inactive: 0.017. Then CHUK (UniProt O15111), with inactive: 0.014.
